PubChem BioAssay AID1259254, NCATS | 2017
Assay: 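Gene knock-downs that lead to re-replication, shown by excess G2 DNA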 (primary screen). Cells: human HCT116 colorectal cancer cells. Reagent: single siRNA against human genes. Timing: 3 days. Measurement: 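Imaged Hoechst DNA stain sorts each cell into a cycle phase by DNA amount; per plate, G2 fraction set to 0% for non-targeting and 100% for GMNN siRNA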. Direction: G2 robust z-score and G2 cells, % of GMNN control: higher = more G2 cells, more excess DNA replication; raw share of cells in G2: higher = larger share of cells with G2 DNA content. Hit rule: 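Active siRNAs have a G2 robust z of 5 or more median absolute deviations over the median, which in these data means about 38% or higher of GMNN control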.
Shown is one part, drawn at random, of about 59,000 reagents. Over the whole deposit, about 1,550 (2.6%) are marked active. 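G2 share is only a proxy for re-replication; each gene was hit by three separate siRNAs, and active genes were retested.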 Raw values are not corrected between plates. Unmarked entries are inactive. Not given: the amount of reagent.

gene knocked down | PubChem SID | G2 robust z-score | G2 cells, % of GMNN control | raw share of cells in G2 (%)
ZNF704 (GeneID 619279) | SID160768388 | 0.989 | 9.93 | 6.51
ZNF704 (GeneID 619279) | SID160768389 | -0.418 | 0.028 | 3.18
ZNF704 (GeneID 619279) | SID160768390 | 0.606 | 7.23 | 6.06
ZFP62 (GeneID 643836) | SID160754283 | 0.989 | 9.93 | 6.51
ZFP62 (GeneID 643836) | SID160754284 | 0.178 | 4.22 | 4.63
ZFP62 (GeneID 643836) | SID160754285 | 0.329 | 5.28 | 5.38
SCGB2B2 (GeneID 284402) | SID160763309 | -0.957 | -3.76 | 2.27
SCGB2B2 (GeneID 284402) | SID160763310 | 1.46 | 13.2 | 8.17
SCGB2B2 (GeneID 284402) | SID160763311 | 0.538 | 6.75 | 5.32
TMEM263 (GeneID 90488) | SID160753714 | 2.18 | 18.3 | 11.9
TMEM263 (GeneID 90488) | SID160753715 | -0.617 | -1.37 | 2.57
TMEM263 (GeneID 90488) | SID160753716 | -0.216 | 1.45 | 3.38

In a second layout: 3 of the entries above
gene knocked down	PubChem SID	G2 robust z-score	G2 cells, % of GMNN control	raw share of cells in G2 (%)
SCGB2B2 (GeneID 284402)	SID160763310	1.46	13.2	8.17
SCGB2B2 (GeneID 284402)	SID160763311	0.538	6.75	5.32
TMEM263 (GeneID 90488)	SID160753714	2.18	18.3	11.9

Continued:
gene knocked down | PubChem SID | G2 robust z-score | G2 cells, % of GMNN control | raw share of cells in G2 (%)
PLTP (GeneID 5360) | SID160714508 | 1.92 | 16.5 | 11
PLTP (GeneID 5360) | SID160714509 | 3.51 | 27.6 | 13.3
PLTP (GeneID 5360) | SID160714510 | -0.386 | 0.252 | 5.06
RAB5B (GeneID 5869) | SID160715542 | -1.17 | -5.29 | 2.66
RAB5B (GeneID 5869) | SID160715543 | 0.252 | 4.74 | 5.72
RAB5B (GeneID 5869) | SID160715544 | -0.395 | 0.189 | 5.04
LOC646778 (retired record) (GeneID 646778) | SID160770010 | -0.408 | 0.097 | 3.81
LOC646778 (retired record) (GeneID 646778) | SID160770011 | -0.0955 | 2.3 | 4.08
LOC646778 (retired record) (GeneID 646778) | SID160770012 | 3.67 | 28.8 | 12.2
ZNF85 (GeneID 7639) | SID160719123 | -0.386 | 0.251 | 3.61
ZNF85 (GeneID 7639) | SID160719124 | -1.01 | -4.14 | 4.14
ZNF85 (GeneID 7639) | SID160719126 | -0.518 | -0.674 | 3.06
MFAP3 (GeneID 4238) | SID160777184 | 1.18 | 11.2 | 9.75
MFAP3 (GeneID 4238) | SID160777185 | -1.22 | -5.64 | 2
MFAP3 (GeneID 4238) | SID160777186 | 0.231 | 4.6 | 5.01
FAM81A (GeneID 145773) | SID160758273 | -0.0759 | 2.43 | 4.64
FAM81A (GeneID 145773) | SID160758274 | 0.149 | 4.02 | 4.15
FAM81A (GeneID 145773) | SID160758275 | -0.297 | 0.878 | 3.37
